PubChem BioAssay AID1259295, Sanger Institute – 2017
The whole screen tested 160 reagents; this is an unselected part. 40 of all reagents (25%) were called active. 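How the synergy score is calculated is not defined; single-siRNA calls need support from other siRNAs and cell lines.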 Reagents against one gene are numbered here. Further read-outs or replicates are left out here. Not given: the amount of reagent, the time to read-out.

Screen: 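Identify siRNA and drug combinations whose joint killing beats the expected effect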 (secondary deconvolution screen, four single siRNAs per gene)
System: human COLO678 colorectal cancer cells
Reagent: single siRNA against human genes
Conditions: anchor drug BYL719 at 1 µM, cetuximab at 5 µg/ml or trametinib at 10 nM, or DMSO vehicle alone
Measured: 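Viability under vehicle relative to control pool 2 (non-targeting), and knockdown synergy with BYL719 1 µM, cetuximab 5 µg/ml or trametinib 10 nM, as replicate means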
Direction: synergy score with BYL719: higher = stronger combined killing with BYL719; synergy score with cetuximab: higher = stronger combined killing with cetuximab; synergy score with trametinib: higher = stronger combined killing with trametinib
Rule for the call: 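Hit: synergy score over 0.10 with BYL719, cetuximab or trametinib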

COASY #1: synergy score with BYL719 = 0.0795; synergy score with cetuximab = 0.0919; synergy score with trametinib = 0.0168; Outcome = inactive
COASY #2: synergy score with BYL719 = 0.153; synergy score with cetuximab = 0.107; synergy score with trametinib = 0.172; Outcome = active
COASY #3: synergy score with BYL719 = 0.0582; synergy score with cetuximab = 0.0402; synergy score with trametinib = -0.0466; Outcome = inactive
COASY #4: synergy score with BYL719 = 0.086; synergy score with cetuximab = 0.0768; synergy score with trametinib = 0.0708; Outcome = inactive
MAP3K8 #1: synergy score with BYL719 = 0.0449; synergy score with cetuximab = -0.0314; synergy score with trametinib = 0.162; Outcome = active
MAP3K8 #2: synergy score with BYL719 = 0.121; synergy score with cetuximab = 0.0551; synergy score with trametinib = 0.0649; Outcome = active
MAP3K8 #3: synergy score with BYL719 = -0.14; synergy score with cetuximab = -0.128; synergy score with trametinib = 0.0526; Outcome = inactive
MAP3K8 #4: synergy score with BYL719 = -0.0559; synergy score with cetuximab = -0.0579; synergy score with trametinib = -0.0249; Outcome = inactive

Next part (2 carried over from the part before).
MAP3K8 #3: synergy score with BYL719 = -0.14; synergy score with cetuximab = -0.128; synergy score with trametinib = 0.0526; Outcome = inactive
MAP3K8 #4: synergy score with BYL719 = -0.0559; synergy score with cetuximab = -0.0579; synergy score with trametinib = -0.0249; Outcome = inactive
GTF2H1 #1: synergy score with BYL719 = -0.0676; synergy score with cetuximab = -0.116; synergy score with trametinib = -0.0486; Outcome = inactive
GTF2H1 #2: synergy score with BYL719 = -0.0784; synergy score with cetuximab = 0.027; synergy score with trametinib = 0.0903; Outcome = inactive
GTF2H1 #3: synergy score with BYL719 = -0.112; synergy score with cetuximab = -0.0635; synergy score with trametinib = 0.158; Outcome = active
GTF2H1 #4: synergy score with BYL719 = -0.088; synergy score with cetuximab = 0.0139; synergy score with trametinib = 0.1; Outcome = active
